The test has as its target T1, FLAG-tagged GAREM2 (Grb2-associated regulator of Erk/MAPK subtype 2) (human) (UniProt Q75VX8).
T1 sequence: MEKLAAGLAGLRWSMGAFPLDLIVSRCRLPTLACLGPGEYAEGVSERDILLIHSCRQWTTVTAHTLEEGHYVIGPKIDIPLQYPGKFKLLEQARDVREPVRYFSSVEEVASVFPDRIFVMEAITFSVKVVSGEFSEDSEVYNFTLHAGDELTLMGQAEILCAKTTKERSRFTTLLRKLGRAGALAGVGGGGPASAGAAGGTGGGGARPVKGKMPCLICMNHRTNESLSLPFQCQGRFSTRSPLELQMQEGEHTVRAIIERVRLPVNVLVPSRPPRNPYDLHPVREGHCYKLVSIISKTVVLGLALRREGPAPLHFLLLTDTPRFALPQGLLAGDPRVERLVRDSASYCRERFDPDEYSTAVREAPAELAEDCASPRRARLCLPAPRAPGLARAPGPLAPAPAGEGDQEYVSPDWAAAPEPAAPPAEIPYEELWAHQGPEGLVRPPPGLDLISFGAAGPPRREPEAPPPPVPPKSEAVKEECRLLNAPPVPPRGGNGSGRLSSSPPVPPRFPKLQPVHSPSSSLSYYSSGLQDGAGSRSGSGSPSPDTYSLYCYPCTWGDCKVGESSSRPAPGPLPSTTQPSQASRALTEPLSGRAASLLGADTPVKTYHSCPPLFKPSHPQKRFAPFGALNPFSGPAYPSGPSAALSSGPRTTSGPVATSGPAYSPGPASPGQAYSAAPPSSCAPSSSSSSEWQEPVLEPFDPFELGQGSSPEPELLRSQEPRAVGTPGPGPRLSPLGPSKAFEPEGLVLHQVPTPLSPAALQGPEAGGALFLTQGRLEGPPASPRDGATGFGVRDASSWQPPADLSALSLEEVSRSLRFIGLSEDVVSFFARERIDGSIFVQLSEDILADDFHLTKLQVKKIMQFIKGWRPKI
Put plainly: co-IP; total cell lysate of SH-SY5Y cells stably expressing FLAG-GAREM2, precipitated with anti-FLAG affinity gel, 0-4 °C; lysis buffer 20 mM Tris-HCl pH 7.5, 1 mM EDTA, 10 mM DTT, 1% Triton X-100, 150 mM NaCl; immunoblot with anti-ITSN1, anti-ITSN2 and anti-FLAG.

By UniProt entry, the sequences of proteins in these tests, tags left out.
UniProt Q15811: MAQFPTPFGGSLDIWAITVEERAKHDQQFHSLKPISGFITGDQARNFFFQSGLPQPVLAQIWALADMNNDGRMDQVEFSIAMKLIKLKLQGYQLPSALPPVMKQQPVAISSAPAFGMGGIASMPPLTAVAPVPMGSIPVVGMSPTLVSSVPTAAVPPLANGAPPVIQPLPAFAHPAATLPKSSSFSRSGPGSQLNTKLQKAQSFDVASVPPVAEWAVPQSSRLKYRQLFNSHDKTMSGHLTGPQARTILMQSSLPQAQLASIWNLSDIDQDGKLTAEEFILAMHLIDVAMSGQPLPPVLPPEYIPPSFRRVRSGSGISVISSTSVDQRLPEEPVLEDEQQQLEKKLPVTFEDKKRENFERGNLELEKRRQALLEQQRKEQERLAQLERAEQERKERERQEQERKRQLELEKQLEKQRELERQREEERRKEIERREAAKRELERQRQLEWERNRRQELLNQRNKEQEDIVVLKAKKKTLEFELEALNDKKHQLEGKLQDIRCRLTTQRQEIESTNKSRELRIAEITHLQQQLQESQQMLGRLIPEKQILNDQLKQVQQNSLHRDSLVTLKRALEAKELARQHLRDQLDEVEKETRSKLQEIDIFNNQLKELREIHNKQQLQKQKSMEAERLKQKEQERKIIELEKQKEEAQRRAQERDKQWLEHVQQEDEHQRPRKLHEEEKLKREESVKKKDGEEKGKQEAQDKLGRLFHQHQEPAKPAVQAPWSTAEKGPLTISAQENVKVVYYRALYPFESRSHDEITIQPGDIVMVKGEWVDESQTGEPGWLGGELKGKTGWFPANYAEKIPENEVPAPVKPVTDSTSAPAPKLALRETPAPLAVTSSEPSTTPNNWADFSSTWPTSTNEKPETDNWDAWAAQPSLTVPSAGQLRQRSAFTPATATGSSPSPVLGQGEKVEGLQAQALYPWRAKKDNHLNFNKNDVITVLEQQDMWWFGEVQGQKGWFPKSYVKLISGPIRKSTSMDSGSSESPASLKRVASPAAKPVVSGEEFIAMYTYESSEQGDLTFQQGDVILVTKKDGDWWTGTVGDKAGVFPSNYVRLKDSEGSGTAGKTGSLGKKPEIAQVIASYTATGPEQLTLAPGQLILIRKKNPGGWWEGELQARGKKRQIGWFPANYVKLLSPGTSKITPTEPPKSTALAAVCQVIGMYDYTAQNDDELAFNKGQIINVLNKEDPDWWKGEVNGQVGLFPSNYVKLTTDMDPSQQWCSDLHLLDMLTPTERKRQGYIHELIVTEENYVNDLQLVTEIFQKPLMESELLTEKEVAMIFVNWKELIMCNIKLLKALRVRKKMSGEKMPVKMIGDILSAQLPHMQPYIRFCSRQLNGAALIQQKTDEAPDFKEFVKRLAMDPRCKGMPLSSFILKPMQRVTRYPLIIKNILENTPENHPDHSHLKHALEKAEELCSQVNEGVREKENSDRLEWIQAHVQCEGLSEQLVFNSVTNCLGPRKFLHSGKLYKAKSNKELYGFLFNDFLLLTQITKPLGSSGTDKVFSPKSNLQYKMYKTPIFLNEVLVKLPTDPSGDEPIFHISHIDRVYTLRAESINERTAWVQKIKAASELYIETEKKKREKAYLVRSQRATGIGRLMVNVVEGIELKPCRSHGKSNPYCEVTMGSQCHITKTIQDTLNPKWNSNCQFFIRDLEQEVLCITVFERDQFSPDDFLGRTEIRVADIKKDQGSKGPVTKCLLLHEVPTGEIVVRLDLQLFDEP

Results are given in words; binding and its absence hold for the method and conditions named. Binding seen in cells or lysates may run through a third protein. Some results given as binding are weak or reduced against the parent protein; the word gives no strength. Sequences can lack the tags named with a protein.

Turning to “Intersectin 1 (from UniProt Q15811 1-1721)”, the binding entry is “binds”.

The record behind these values is article PMC6852768.
